Some results were stated once for a whole list of compounds, not compound by compound.
Tests used:
[1] = tested on: SK-Mel-3 melanoma cells; experiment: Intracellular ATP measurement (CellTiter-Glo luciferase assay); format: cell-based, human; conditions: SK-Mel-3, 10 μM, 24 h; untreated 1.4 mM
Description: (§1) TPVP derivatives embed in the mitochondria of malignant cells and increase the oxidation state relative to NHFs. Therefore, intracellular ATP levels were measured to determine the potential impact of TPVP-based treatment on cell viability (FIG. 4). This platereader-based luciferase assay is a selective method for determining the number of viable cells by quantifying the ATP-dependent oxygenation of luciferin. […] Specifically, A375 ATP levels were depleted from 1.5 mM to less than 0.8 mM after exposure to all three compounds at 10 μM.
(§2) Experiments were performed using human metastatic BRAFV600E mutant A375 (ATCC CRL-1619) human melanoma cells, metastatic BRAFV600E mutant SK-Mel-3 (ATCC HTB-69) human melanoma cells isolated from a lymph node metastasis, and nonmetastatic normal human fibroblasts (NHFs) provided by the Coriell Institute (AG13442). All cells were cultured at 21% O2 at 37° C. in a humidified 5% CO2 incubator. Cells were detached with 0.25% trypsin-EDTA. A375 and NHF cells were cultured in high-glucose DMEM medium supplemented with 1% PenStrep and 10% FBS. SK-Mel-3 cells were cultured in high-glucose McCoy's 5A medium supplemented with 1% PenStrep and 15% FBS. All medium components were purchased from Gibco.
(§3) A375 cells were plated in 60 mm culture dishes at a density of 1.5×10^5 cells per dish. SK-Mel-3 and NHF cells were plated in 60 mm culture dishes at a density of 2.5×10^5 cells per dish. After 48 h, cells were exposed to 2.5, 5.0 or 10 μM of PTVP, DPDVP, or 18:2-TPVP for 24 h and analyzed for intracellular ATP content using the CellTiter-Glo Luminescent Cell Viability Assay (Promega).

[2] = tested on: A375 melanoma cells; experiment: as above; format: cell-based, human; conditions: A375, 10 μM, 24 h; untreated 1.5 mM
Description: as §1, §2, §3

| Compound | intracellular ATP level after exposure [1] | intracellular ATP level after exposure [2] |
| --- | --- | --- |
| CCCCC/C=C\C/C=C\CCCCCCCC[n+]1ccc(C(=C(c2ccccc2)c2ccccc2)c2ccccc2)cc1.[Br-] [18:2-TPVP, 1-((9Z,12Z)-Octadeca-9,12-dien-1-yl)-4-(1,2,2-triphenylvinyl)pyridin-1-ium Bromide] | less than 1.0 mM | less than 0.8 mM |
| CCCCCCCCCC[n+]1ccc(C(=C(c2ccccc2)c2ccccc2)c2cc[n+](CCCCCCCCCC)cc2)cc1.[Br-].[Br-] [DPDVP, 4,4′-(2,2-Diphenylethene-1,1-diyl)bis(1-decylpyridin-1-ium) Bromide] | less than 1.0 mM | less than 0.8 mM |
| CCCCCCCCCC[n+]1ccc(C(=C(c2cc[n+](CCCCCCCCCC)cc2)c2cc[n+](CCCCCCCCCC)cc2)c2ccccc2)cc1.[Br-].[Br-].[Br-] [PTVP, 4,4′,4″-(2-Phenylethene-1,1,2-triyl)tris(1-decylpyridin-1-ium) Bromide] | less than 1.0 mM | less than 0.8 mM |

Source: patent US9980951B2, “Image guided therapy for cancer” (UNIVERSITY OF IOWA RESEARCH FOUNDATION, priority 2015, dated 2018)
